Measurements reported in publication doi:10.1101/2021.04.18.440256.
Read-outs that look alike come from different tables or passages of the source. No constants are given. Whether binding was seen depends on the method and setting. In cells and extracts the contact can be indirect. Some entries that bind do so weakly or less than the wild type. For some of these results: Sequences can lack the tags named with a protein.

T1: HA-tagged DCST1 (Dcst1-3xHA transgene, mouse) (mouse) (UniProt Q059Y8)
T1 sequence: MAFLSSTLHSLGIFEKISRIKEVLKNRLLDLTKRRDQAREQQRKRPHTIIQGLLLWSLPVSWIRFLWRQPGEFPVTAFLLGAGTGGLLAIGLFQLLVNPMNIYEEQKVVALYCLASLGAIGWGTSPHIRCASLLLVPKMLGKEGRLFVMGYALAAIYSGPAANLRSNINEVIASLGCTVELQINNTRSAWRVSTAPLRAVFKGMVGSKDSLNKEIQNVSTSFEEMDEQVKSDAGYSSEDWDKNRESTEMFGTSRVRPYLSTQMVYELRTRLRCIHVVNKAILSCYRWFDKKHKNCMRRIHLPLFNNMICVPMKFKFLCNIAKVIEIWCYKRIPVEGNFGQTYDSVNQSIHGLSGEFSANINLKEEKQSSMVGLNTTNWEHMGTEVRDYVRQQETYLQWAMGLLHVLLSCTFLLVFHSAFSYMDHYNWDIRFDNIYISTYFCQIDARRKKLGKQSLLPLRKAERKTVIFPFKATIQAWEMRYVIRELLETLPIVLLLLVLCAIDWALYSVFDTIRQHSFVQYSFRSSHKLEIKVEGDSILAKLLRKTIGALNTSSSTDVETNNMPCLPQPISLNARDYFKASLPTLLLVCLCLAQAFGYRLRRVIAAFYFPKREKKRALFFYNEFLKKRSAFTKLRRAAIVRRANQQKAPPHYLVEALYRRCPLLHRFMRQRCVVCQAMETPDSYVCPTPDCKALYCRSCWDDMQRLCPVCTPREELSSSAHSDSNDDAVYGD


Tests used:
Experiment in all cases: co-IP
[1] = target: T1, HA-tagged DCST1 (Dcst1-3xHA transgene, mouse) (mouse)
[2] = target: HA-tagged DCST2 (Dcst2-3xHA transgene, mouse) (mouse)
[3] = target: HA-tagged DCST2 (Dcst2-3xHA transgene, mouse) (mouse); remark: listed apart in the source
[4] = target: HA-tagged DCST2 (mouse Dcst2 ORF-3xHA) (mouse)

Row | binding [1] | binding [2] | binding [3] | binding [4] | Binder
1 | no binding | no binding | no binding |  | IZUMO1 (protein, UniProt Q9D9J7 22-397) CIKCDQFVTDALKTFENTYLNDHLPHDIHKNVMRMVNHEVSSFGVVTSAEDSYLGAVDENTLEQATWSFLKDLKRITDSDLKGELFIKELLWMLRHQKDIFNNLARQFQKEVLCPNKCGVMSQTLIWCLKCEKQLHICRKSLDCGERHIEVHRSEDLVLDCLLSWHRASKGLTDYSFYRVWENSSETLIAKGKEPYLTKSMVGPEDAGNYRCVLDTINQGHATVIRYDVTVLPPKHSEENQPPNIITQEEHETPVHVTPQTPPGQEPESELYPELHPELYPELIPTVAQNPEKKMKTRLLILLTLGFVVLVASIIISVLHFRKVSAKLKNASDEVKPTASGSKSDQSLSQQMGLKKASQADFNSDYSGDKSEATEN
2 |  |  |  | binds | FLAG-tagged DCST1 (mouse Dcst1 ORF-3xFLAG) (protein, UniProt Q059Y8 1-732) MAFLSSTLHSLGIFEKISRIKEVLKNRLLDLTKRRDQAREQQRKRPHTIIQGLLLWSLPVSWIRFLWRQPGEFPVTAFLLGAGTGGLLAIGLFQLLVNPMNIYEEQKVVALYCLASLGAIGWGTSPHIRCASLLLVPKMLGKEGRLFVMGYALAAIYSGPAANLRSNINEVIASLGCTVELQINNTRSAWRVSTAPLRAVFKGMVGSKDSLNKEIQNVSTSFEEMDEQVKSDAGYSSEDWDKNRESTEMFGTSRVRPYLSTQMVYELRTRLRCIHVVNKAILSCYRWFDKKHKNCMRRIHLPLFNNMICVPMKFKFLCNIAKVIEIWCYKRIPVEGNFGQTYDSVNQSIHGLSGEFSANINLKEEKQSSMVGLNTTNWEHMGTEVRDYVRQQETYLQWAMGLLHVLLSCTFLLVFHSAFSYMDHYNWDIRFDNIYISTYFCQIDARRKKLGKQSLLPLRKAERKTVIFPFKATIQAWEMRYVIRELLETLPIVLLLLVLCAIDWALYSVFDTIRQHSFVQYSFRSSHKLEIKVEGDSILAKLLRKTIGALNTSSSTDVETNNMPCLPQPISLNARDYFKASLPTLLLVCLCLAQAFGYRLRRVIAAFYFPKREKKRALFFYNEFLKKRSAFTKLRRAAIVRRANQQKAPPHYLVEALYRRCPLLHRFMRQRCVVCQAMETPDSYVCPTPDCKALYCRSCWDDMQRLCPVCTPREELSSSAHSDSNDDAVYGD
